This passage reports binding results from article doi:10.1101/2024.06.16.599182.

Sequences of proteins named here, by UniProt entry; tags and fusion partners are left off.
UniProt Q9R210: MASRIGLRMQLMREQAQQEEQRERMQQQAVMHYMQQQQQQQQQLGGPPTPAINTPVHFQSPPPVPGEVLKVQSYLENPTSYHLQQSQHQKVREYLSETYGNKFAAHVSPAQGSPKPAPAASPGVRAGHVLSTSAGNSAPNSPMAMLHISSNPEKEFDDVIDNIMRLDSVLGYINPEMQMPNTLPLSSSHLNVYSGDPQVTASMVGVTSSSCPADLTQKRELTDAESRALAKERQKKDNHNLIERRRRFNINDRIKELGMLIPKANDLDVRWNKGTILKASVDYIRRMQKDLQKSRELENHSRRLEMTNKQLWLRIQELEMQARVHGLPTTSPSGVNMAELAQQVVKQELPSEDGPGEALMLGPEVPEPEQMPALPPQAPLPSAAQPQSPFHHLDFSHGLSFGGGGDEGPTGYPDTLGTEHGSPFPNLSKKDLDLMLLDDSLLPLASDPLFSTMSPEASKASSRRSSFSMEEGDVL

No constants are given. Whether binding was seen depends on the method and setting. Binding seen in cells or lysates may run through a third protein. Some binding calls cover weakened binding; strength is not graded here. For some assays here: Where a sequence is shown, tags or fusion partners need not be part of it.

Assay [1] has as its target transcription factor EB (TFEB), endogenous in mouse ependymal cells (mouse (endogenous in EPCs)) (UniProt Q9R210). Kind of assay: co-IP.
Assay [2] addresses GFP-TFEB (full-length mouse Tfeb in pLV-EGFP-C1) (mouse) (UniProt Q9R210). Kind of assay: co-IP.

B1: LHX2, endogenous in mouse ependymal cells (protein, UniProt Q9Z0S2 1-406)
chain: MLFHSLSGPEVHGVIDEMDRRAKSEAPAISSAIDRGDTETTMPSISSDRAALCAGCGGKISDRYYLLAVDKQWHMRCLKCCECKLNLESELTCFSKDGSIYCKEDYYRRFSVQRCARCHLGISASEMVMRARDLVYHLNCFTCTTCNKMLTTGDHFGMKDSLVYCRLHFEALLQGEYPAHFNHADVAAAAAAAAAAKSAGLGSAGANPLGLPYYNGVGTVQKGRPRKRKSPGPGADLAAYNAALSCNENDAEHLDRDQPYPSSQKTKRMRTSFKHHQLRTMKSYFAINHNPDAKDLKQLAQKTGLTKRVLQVWFQNARAKFRRNLLRQENTGVDKTSDATLQTGTPSGPASELSNASLSPSSTPTTLTDLTSPTLPTVTSVLTSVPGNLEGHEPHSPSQTTLTNLF
Regarding B1, the binding entry in assay [1] is given as “binds”.

B2: FLAG-LHX2 (full-length mouse Lhx2 in pcDNA3.1-FLAG) (protein, UniProt Q9Z0S2 1-406)
chain: MLFHSLSGPEVHGVIDEMDRRAKSEAPAISSAIDRGDTETTMPSISSDRAALCAGCGGKISDRYYLLAVDKQWHMRCLKCCECKLNLESELTCFSKDGSIYCKEDYYRRFSVQRCARCHLGISASEMVMRARDLVYHLNCFTCTTCNKMLTTGDHFGMKDSLVYCRLHFEALLQGEYPAHFNHADVAAAAAAAAAAKSAGLGSAGANPLGLPYYNGVGTVQKGRPRKRKSPGPGADLAAYNAALSCNENDAEHLDRDQPYPSSQKTKRMRTSFKHHQLRTMKSYFAINHNPDAKDLKQLAQKTGLTKRVLQVWFQNARAKFRRNLLRQENTGVDKTSDATLQTGTPSGPASELSNASLSPSSTPTTLTDLTSPTLPTVTSVLTSVPGNLEGHEPHSPSQTTLTNLF
For the molecule B2, the binding result in assay [2] is reported as “binds”.
